This is one part of the list.
What was measured:
Assay in all cases: log2 fold change, soluble protein after heating vs DMSO (PISA); higher = thermal stabilisation; K562 cells, 10 uM, 30 min; active = over 0.2 and 3.5 SD of the protein, either way, in both replicates (recomputed)
[1] = compound: C1=CC=C(C=C1)[C@H](COC2=CC3=C(C=C2)NC(=O)N3)NC(=O)C4=CC=CN(C4=O)CC5=CC(=C(C=C5)F)F
Method in brief: (§1)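 Quantification of soluble protein used TMTpro 16plex LC-MS/MS, with channel sums equalised. Samples were the supernatant after 21,000xg for 90 min of pooled aliquots from K562 cells (2×10^6 cells/mL) treated with 10 μM compound for 30 min, heated for 3 min over 48°C-58°C, and extracted in PBS with 0.5% NP-40 at 4°C. Values, from duplicates, describe thermal stability against control samples on a log2 fold-change scale.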

Amino acid sequences for entries named in this document (tags omitted). A change or cut given only in a name is not applied to a line headed by its entry.
UniProt Q99942: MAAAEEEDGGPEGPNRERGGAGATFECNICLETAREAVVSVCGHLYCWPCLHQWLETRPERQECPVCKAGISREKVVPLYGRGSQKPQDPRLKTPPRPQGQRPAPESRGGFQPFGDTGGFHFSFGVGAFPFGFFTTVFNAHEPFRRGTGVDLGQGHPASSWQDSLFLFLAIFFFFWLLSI
UniProt O75150, whole entry, looked up: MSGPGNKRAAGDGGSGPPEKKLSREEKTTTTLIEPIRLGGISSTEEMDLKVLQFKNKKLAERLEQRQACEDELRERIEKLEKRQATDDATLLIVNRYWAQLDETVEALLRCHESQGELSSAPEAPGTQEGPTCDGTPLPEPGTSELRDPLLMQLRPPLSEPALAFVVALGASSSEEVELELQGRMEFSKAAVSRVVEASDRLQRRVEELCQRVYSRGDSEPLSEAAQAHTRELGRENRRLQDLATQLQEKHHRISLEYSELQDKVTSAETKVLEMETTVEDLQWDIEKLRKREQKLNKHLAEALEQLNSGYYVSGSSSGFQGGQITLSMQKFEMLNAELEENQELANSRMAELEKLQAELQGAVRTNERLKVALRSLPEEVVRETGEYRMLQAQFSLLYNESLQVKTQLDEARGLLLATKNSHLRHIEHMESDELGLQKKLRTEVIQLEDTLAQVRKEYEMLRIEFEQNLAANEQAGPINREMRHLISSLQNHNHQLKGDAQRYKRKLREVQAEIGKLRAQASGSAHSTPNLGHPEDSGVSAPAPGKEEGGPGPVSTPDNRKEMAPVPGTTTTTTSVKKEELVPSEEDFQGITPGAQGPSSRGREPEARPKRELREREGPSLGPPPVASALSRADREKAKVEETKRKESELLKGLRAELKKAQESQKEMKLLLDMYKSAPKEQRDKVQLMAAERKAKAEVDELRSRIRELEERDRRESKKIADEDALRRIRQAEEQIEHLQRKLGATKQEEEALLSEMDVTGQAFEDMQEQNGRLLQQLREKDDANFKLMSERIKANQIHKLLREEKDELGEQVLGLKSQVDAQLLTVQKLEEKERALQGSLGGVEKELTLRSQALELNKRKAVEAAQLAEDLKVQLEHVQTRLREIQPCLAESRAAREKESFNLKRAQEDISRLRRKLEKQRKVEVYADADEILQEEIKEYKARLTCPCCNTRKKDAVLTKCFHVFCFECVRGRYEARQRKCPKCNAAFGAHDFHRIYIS

[2] = compound: CC1=C(SC2=C1C(=N[C@H](C3=NN=C(N32)C)CC(=O)N)C4=CC=C(C=C4)Cl)C
Method in brief: as §1

[3] = compound: CC1=C2C(=CC=C1)N=C(N(C2=O)C3=CC=CC=C3C)CN4C=NC5=C(N=CN=C54)N
Method in brief: as §1

[4] = compound: Cc1sc2c(c1C)C(c1ccc(Cl)cc1)=N[C@@H](CC(=O)OC(C)(C)C)c1nnc(C)n1-2
Method in brief: as §1

[5] = compound: c1ccc([C@@H]2C[C@H]2NC2CCNCC2)cc1
Method in brief: as §1

Measured: log2 fold change

RPL34 (UniProt P49207)
inactive: [1] 0.274 | [2] -0.589 | [3] -0.649 | [4] 0.314 | [5] -0.001

RNF5 (UniProt Q99942)
inactive: [1] -0.078 | [2] 0.025 | [3] 0.072 | [4] -0.05 | [5] -0.012

RPL14 (UniProt P50914)
inactive: [1] 0.225 | [2] -0.426 | [3] -0.758 | [4] 0.271 | [5] -0.023

Quoted from above (2 entries):
RNF5 (UniProt Q99942)
inactive: [1] -0.078 | [2] 0.025 | [3] 0.072 | [4] -0.05 | [5] -0.012

RPL14 (UniProt P50914)
inactive: [1] 0.225 | [2] -0.426 | [3] -0.758 | [4] 0.271 | [5] -0.023

Going on with the list.

RPS5 (UniProt P46782)
inactive: [1] 0.049 | [2] -0.144 | [3] -0.214 | [4] 0.082 | [5] 0.001

RNF40 (UniProt O75150)
inactive: [1] 0.059 | [2] -0.048 | [3] 0.283 | [4] -0.126 | [5] -0.002

RPS19 (UniProt P39019)
inactive: [1] 0.108 | [2] -0.158 | [3] -0.197 | [4] 0.107 | [5] -0.002

RPL22 (UniProt P35268)
inactive: [1] 0.099 | [2] -0.175 | [3] -0.109 | [4] 0.13 | [5] -0.019

RPL23 (UniProt P62829)
inactive: [1] 0.09 | [2] -0.183 | [3] -0.143 | [4] 0.173 | [5] 0

RPL31 (UniProt P62899)
inactive: [1] 0.106 | [2] -0.241 | [3] -0.22 | [4] 0.202 | [5] 0
